The values below come from the supplement of paper PMC7666118.

The chains behind the UniProt entries cited, without tags or fusion partners. Where a name states a change or a piece, a line headed by the entry shows the natural chain unless it says otherwise.
UniProt Q8WVJ2: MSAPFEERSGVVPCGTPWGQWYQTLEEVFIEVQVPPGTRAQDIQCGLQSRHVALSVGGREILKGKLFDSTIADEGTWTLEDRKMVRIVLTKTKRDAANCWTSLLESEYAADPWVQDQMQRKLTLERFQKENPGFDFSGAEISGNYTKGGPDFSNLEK
UniProt P46459: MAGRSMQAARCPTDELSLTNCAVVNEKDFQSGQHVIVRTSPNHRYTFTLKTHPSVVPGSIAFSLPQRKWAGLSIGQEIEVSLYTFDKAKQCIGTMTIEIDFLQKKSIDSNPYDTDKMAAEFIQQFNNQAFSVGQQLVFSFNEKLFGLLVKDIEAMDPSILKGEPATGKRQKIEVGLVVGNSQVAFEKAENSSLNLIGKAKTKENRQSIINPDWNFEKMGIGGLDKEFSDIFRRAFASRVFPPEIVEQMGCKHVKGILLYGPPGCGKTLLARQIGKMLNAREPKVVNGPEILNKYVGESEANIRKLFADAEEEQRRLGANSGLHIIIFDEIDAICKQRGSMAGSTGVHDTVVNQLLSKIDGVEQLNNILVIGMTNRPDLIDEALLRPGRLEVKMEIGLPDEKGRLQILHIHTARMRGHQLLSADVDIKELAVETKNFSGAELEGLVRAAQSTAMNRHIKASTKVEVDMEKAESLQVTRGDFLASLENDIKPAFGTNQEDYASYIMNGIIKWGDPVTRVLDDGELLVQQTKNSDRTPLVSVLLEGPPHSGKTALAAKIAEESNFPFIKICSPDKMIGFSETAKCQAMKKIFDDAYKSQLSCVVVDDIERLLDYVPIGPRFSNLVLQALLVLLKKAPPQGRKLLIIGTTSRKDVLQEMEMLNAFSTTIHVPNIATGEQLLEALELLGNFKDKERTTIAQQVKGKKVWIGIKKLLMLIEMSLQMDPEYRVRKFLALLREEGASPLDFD
UniProt P13674: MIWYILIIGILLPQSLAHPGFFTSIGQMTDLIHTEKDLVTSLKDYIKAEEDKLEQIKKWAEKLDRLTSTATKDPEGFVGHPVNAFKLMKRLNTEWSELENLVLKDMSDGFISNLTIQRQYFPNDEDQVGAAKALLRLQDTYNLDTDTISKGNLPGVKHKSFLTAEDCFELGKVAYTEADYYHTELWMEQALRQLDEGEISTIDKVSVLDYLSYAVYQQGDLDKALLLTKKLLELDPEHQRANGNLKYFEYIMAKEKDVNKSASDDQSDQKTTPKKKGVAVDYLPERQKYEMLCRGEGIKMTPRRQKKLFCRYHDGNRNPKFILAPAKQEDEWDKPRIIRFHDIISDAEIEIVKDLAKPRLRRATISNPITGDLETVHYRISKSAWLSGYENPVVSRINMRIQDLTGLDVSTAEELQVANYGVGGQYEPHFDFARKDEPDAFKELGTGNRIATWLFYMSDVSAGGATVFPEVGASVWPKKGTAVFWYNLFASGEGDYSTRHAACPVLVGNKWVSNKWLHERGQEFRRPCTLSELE
UniProt Q9UHK0: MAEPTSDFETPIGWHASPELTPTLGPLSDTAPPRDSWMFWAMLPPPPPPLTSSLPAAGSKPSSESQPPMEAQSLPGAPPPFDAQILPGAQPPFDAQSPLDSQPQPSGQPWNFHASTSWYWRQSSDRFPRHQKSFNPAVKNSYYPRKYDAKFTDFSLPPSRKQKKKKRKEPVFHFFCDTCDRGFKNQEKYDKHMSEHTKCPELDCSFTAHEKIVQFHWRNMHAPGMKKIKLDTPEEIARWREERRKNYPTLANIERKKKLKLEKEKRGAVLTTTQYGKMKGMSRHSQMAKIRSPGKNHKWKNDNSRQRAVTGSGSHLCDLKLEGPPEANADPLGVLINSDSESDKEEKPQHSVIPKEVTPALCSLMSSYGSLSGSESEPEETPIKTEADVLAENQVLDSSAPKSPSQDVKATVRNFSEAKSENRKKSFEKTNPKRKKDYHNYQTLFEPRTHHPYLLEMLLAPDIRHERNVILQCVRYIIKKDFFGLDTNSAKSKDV
UniProt Q8WUM4: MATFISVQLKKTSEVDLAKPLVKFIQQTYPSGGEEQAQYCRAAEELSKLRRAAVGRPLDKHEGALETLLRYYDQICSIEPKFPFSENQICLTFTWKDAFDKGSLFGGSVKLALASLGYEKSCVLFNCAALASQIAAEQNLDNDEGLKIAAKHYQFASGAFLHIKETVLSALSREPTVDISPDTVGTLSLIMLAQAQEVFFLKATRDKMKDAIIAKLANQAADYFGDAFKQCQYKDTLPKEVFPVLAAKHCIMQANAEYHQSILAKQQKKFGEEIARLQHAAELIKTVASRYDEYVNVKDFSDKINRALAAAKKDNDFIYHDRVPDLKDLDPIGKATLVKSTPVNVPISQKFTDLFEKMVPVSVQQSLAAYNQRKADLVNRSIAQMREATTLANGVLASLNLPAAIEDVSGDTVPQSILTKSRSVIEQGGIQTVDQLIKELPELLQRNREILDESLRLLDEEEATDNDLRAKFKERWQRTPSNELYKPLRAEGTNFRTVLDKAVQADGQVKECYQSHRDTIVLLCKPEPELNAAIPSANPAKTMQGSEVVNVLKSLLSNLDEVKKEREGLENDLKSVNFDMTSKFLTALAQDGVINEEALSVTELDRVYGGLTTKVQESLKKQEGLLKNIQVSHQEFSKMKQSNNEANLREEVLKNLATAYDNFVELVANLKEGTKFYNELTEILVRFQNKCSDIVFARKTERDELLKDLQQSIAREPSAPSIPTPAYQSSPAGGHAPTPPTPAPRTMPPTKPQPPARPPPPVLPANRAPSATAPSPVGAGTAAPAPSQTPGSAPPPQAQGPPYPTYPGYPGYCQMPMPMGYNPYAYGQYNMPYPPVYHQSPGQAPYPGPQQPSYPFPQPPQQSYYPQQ
UniProt Q9BRJ7: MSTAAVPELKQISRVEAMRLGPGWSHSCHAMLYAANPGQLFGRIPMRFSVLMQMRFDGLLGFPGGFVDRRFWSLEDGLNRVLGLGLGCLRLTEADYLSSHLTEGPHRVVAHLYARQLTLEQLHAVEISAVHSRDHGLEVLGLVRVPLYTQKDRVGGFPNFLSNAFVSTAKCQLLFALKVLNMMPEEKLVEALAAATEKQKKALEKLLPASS
UniProt O96011: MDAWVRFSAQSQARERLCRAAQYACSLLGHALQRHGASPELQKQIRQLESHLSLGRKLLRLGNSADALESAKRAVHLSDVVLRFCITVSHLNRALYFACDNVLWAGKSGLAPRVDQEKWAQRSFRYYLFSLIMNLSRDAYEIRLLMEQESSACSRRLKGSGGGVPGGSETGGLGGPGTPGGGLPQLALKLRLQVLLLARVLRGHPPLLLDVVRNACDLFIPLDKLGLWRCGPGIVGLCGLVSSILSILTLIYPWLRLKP
UniProt Q9H0J9: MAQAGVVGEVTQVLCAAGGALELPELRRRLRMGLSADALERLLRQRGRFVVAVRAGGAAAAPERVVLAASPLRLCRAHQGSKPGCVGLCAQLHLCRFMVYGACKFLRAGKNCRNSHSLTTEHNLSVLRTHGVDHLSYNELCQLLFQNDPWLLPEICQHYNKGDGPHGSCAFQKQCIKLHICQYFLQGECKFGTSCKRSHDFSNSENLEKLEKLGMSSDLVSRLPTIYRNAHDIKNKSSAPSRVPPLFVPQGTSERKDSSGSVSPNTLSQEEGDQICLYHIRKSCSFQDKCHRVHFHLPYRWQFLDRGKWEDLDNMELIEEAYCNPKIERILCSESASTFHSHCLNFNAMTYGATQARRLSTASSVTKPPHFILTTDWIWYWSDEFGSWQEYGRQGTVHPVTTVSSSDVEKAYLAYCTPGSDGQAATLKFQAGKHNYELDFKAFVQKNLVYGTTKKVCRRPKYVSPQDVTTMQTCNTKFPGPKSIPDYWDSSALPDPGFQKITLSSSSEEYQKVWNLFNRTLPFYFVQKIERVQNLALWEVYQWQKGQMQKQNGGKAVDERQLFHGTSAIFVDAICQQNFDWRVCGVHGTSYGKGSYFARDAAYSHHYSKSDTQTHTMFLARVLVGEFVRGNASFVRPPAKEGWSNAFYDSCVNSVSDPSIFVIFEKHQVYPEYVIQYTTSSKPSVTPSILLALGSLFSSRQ
UniProt Q99567: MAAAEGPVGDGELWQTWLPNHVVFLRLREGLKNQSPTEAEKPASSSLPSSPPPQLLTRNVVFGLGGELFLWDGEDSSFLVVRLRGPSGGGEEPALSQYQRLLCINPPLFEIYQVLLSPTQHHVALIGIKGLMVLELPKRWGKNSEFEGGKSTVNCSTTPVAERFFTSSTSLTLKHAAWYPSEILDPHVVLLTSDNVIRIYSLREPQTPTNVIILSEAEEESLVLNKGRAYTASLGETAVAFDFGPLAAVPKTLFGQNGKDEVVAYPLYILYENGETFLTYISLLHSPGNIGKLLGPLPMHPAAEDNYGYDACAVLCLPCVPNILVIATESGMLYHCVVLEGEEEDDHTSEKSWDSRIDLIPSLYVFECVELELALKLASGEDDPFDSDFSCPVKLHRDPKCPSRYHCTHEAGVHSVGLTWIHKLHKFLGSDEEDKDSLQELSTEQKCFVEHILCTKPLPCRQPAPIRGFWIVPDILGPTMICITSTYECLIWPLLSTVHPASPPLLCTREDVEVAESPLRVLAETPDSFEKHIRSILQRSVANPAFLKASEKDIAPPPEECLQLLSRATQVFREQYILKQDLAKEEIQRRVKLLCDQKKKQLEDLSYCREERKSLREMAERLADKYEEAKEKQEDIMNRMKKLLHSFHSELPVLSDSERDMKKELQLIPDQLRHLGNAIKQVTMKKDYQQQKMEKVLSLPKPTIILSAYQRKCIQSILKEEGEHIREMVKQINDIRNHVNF
UniProt Q86YH6: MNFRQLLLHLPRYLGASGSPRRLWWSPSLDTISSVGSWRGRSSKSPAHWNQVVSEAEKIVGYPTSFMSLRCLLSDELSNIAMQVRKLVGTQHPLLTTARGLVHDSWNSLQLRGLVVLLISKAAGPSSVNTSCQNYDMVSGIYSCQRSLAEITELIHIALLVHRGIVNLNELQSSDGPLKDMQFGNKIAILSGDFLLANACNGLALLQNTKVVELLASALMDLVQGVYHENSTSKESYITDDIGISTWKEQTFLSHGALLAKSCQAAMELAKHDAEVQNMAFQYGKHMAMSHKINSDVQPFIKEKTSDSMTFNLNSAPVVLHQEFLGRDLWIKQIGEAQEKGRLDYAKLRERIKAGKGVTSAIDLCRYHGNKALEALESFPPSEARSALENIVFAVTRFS
UniProt O43482, whole entry: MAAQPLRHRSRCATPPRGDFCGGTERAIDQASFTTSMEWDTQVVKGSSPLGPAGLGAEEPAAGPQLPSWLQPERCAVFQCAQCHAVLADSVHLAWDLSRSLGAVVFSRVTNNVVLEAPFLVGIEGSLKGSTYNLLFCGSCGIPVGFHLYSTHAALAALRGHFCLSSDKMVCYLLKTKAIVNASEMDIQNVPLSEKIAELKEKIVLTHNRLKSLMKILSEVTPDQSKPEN
UniProt Q9Y5Y5: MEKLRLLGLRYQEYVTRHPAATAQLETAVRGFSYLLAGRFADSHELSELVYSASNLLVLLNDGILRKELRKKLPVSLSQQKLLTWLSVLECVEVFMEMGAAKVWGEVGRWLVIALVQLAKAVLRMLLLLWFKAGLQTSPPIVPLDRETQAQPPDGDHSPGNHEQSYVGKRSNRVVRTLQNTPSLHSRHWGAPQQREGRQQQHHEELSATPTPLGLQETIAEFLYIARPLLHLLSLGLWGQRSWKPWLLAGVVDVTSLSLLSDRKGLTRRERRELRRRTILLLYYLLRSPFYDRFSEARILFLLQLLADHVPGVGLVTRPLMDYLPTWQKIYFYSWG
UniProt Q92636: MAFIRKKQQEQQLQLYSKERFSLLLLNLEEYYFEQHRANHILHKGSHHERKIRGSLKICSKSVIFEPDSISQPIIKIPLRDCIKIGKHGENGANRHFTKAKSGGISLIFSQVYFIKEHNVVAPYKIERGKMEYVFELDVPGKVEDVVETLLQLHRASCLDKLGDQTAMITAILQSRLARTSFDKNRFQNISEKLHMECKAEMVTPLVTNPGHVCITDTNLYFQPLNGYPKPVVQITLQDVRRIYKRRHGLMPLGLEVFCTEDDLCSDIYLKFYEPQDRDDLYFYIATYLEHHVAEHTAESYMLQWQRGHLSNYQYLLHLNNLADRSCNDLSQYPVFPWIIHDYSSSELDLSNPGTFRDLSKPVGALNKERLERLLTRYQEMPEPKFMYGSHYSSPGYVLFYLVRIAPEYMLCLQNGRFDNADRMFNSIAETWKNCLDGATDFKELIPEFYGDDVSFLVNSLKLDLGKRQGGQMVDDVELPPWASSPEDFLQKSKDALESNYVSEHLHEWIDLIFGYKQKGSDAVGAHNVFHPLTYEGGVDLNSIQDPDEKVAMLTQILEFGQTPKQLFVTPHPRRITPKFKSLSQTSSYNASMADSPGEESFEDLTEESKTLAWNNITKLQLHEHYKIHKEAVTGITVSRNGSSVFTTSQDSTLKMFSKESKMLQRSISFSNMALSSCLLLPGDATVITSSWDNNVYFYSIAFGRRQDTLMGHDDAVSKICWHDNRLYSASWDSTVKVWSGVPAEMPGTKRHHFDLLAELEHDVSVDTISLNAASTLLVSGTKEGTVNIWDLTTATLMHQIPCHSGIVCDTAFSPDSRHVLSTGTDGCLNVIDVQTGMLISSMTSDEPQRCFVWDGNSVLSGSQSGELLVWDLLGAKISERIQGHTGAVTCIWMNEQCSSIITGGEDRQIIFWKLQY

The other results are listed elsewhere or left out.

Compound in this assay: COc1ccc(Cn2ccc3ccc(C(=O)NO)cc32)cc1
The experiment in a line: dose-dependent thermal stabilisation call (2D-TPP, DLPTP, 10% FDR) (binary (1 = stabilised)); higher = stabilised by the compound. As to conditions: system: HL-60 intact cells; concentration range 0.04-10 µM.
On to NUBP2 (UniProt Q9Y5Y2), for which the “dose-dependent thermal stabilisation call” value was inactive: 0. The result for PDS5A (UniProt Q29RF7) reads inactive: 0. As for NUP153 (UniProt P49790), the “dose-dependent thermal stabilisation call” value was inactive: 0.

As for NUDCD2 (UniProt Q8WVJ2), the “dose-dependent thermal stabilisation call” value is inactive: 0. As to PEX6 (UniProt Q13608), the “dose-dependent thermal stabilisation call” value was inactive: 0. For PDLIM5 (UniProt Q96HC4), the “dose-dependent thermal stabilisation call” value was inactive: 0. With PACS2 (UniProt Q86VP3), the “dose-dependent thermal stabilisation call” value was inactive: 0. The figure for PAXIP1 (UniProt Q6ZW49) is inactive: 0. The figure for NSF (UniProt P46459) is inactive: 0; for PFDN1 (UniProt O60925) it is inactive: 0; for P4HA1 (UniProt P13674) it is inactive: 0. For the target PAFAH1B1 (UniProt P43034), the “dose-dependent thermal stabilisation call” value is inactive: 0. Take PANK1 (UniProt Q8TE04): the “dose-dependent thermal stabilisation call” value was inactive: 0. The figure for NUFIP1 (UniProt Q9UHK0) is inactive: 0.

On to PDCD6IP (UniProt Q8WUM4), for which the “dose-dependent thermal stabilisation call” value is inactive: 0. The result for OSBPL11 (UniProt Q9BXB4) reads inactive: 0; that for OTUD5 (UniProt Q96G74), inactive: 0.

Turning to PDSS1 (UniProt Q5T2R2), the “dose-dependent thermal stabilisation call” value was inactive: 0. The result for PFKP (UniProt Q01813) reads inactive: 0; that for OXNAD1 (UniProt Q96HP4), inactive: 0; that for NUDT16L1 (UniProt Q9BRJ7), inactive: 0. The figure for PGAP1 (UniProt Q75T13) is inactive: 0; for PEX11B (UniProt O96011) it is inactive: 0; for OVCA2 (UniProt Q8WZ82) it is inactive: 0. As for ORC2L (UniProt Q13416), the “dose-dependent thermal stabilisation call” value was inactive: 0.

In the case of PCID2 (UniProt Q5JVF3), the “dose-dependent thermal stabilisation call” value is inactive: 0.

As for NUDT5 (UniProt Q9UKK9), the “dose-dependent thermal stabilisation call” value was inactive: 0. For NUDCD1 (UniProt Q96RS6), the “dose-dependent thermal stabilisation call” value was inactive: 0.

Take PARP12 (UniProt Q9H0J9): the “dose-dependent thermal stabilisation call” value is inactive: 0.

With NUP35 (UniProt Q8NFH5), the “dose-dependent thermal stabilisation call” value is inactive: 0.

Take NUP88 (UniProt Q99567): the “dose-dependent thermal stabilisation call” value is inactive: 0. In the case of PDSS2 (UniProt Q86YH6), the “dose-dependent thermal stabilisation call” value is inactive: 0. Take NUBP1 (UniProt P53384): the “dose-dependent thermal stabilisation call” value was inactive: 0. The result for OIP5 (UniProt O43482) reads inactive: 0.

On to NSL1 (UniProt Q96IY1), for which the “dose-dependent thermal stabilisation call” value was inactive: 0. PEX16 (UniProt Q9Y5Y5): the “dose-dependent thermal stabilisation call” value is inactive: 0. As to NSMAF (UniProt Q92636), the “dose-dependent thermal stabilisation call” value is inactive: 0.

PFN1 (UniProt P07737): the “dose-dependent thermal stabilisation call” value was inactive: 0.
